Taken from: PubChem BioAssay AID1259254 (NCATS, 2017)
Shown is one part, drawn at random, of about 59,000 reagents tested. About 1,550 of all reagents (2.6%) were called active. 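G2 share is only a proxy for re-replication; each gene was hit by three separate siRNAs, and active genes were retested.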 Not all columns of the deposit are shown. Reagent sequences are not shown. The record does not give: the amount of reagent.

Assay: 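Genome-wide screen for genes that prevent DNA re-replication in cancer cells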 (primary screen)
Cells: human HCT116 colorectal cancer cells
Knock-down reagent: single siRNA against human genes
Timing: 3 days
Measured: 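Imaged Hoechst DNA stain sorts each cell into a cycle phase by DNA amount; per plate, G2 fraction set to 0% for non-targeting and 100% for GMNN siRNA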
Direction: G2 robust z-score: higher = more G2 cells, more excess DNA replication
Active means: 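An siRNA counts as active if its G2 robust z-score lies at least 5 MADs above the screen median; here such calls match roughly 38% of GMNN control or more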

gene knocked down,PubChem SID,G2 robust z-score,Outcome
ABCC11 (ATP binding cassette subfamily C member 11),SID160753189,-0.488,inactive
ABCC11 (ATP binding cassette subfamily C member 11),SID160753190,-0.521,inactive
ABCC11 (ATP binding cassette subfamily C member 11),SID160753191,0.496,inactive
STYX (serine/threonine/tyrosine interacting protein),SID160717522,1.2,inactive
STYX (serine/threonine/tyrosine interacting protein),SID160717523,-0.635,inactive
STYX (serine/threonine/tyrosine interacting protein),SID160717524,-0.521,inactive
GPR88 (G protein-coupled receptor 88),SID160741584,-0.184,inactive
GPR88 (G protein-coupled receptor 88),SID160741585,-1.29,inactive
GPR88 (G protein-coupled receptor 88),SID160741586,1.55,inactive
PRORP (protein only RNase P catalytic subunit),SID160722818,-0.55,inactive
PRORP (protein only RNase P catalytic subunit),SID160722819,6.44,active
PRORP (protein only RNase P catalytic subunit),SID160722820,-0.817,inactive

Next part, starting with the last 3 of the part before.
gene knocked down,PubChem SID,G2 robust z-score,Outcome
PRORP (protein only RNase P catalytic subunit),SID160722818,-0.55,inactive
PRORP (protein only RNase P catalytic subunit),SID160722819,6.44,active
PRORP (protein only RNase P catalytic subunit),SID160722820,-0.817,inactive
HOXD13 (homeobox D13),SID160775270,-0.53,inactive
HOXD13 (homeobox D13),SID160775271,-0.826,inactive
HOXD13 (homeobox D13),SID160775272,1.81,inactive
MMP9 (matrix metallopeptidase 9),SID160777344,1.99,inactive
MMP9 (matrix metallopeptidase 9),SID160777345,0.0386,inactive
MMP9 (matrix metallopeptidase 9),SID160777346,-0.926,inactive
MPHOSPH6 (M-phase phosphoprotein 6),SID160726830,1.7,inactive
MPHOSPH6 (M-phase phosphoprotein 6),SID160726839,1.31,inactive
MPHOSPH6 (M-phase phosphoprotein 6),SID160726842,2.99,inactive
MMP13 (matrix metallopeptidase 13),SID160777357,1.05,inactive
MMP13 (matrix metallopeptidase 13),SID160777358,-0.838,inactive
MMP13 (matrix metallopeptidase 13),SID160777359,-0.174,inactive
MCF2L2 (MCF.2 cell line derived transforming sequence-like 2),SID160735452,-1.52,inactive
MCF2L2 (MCF.2 cell line derived transforming sequence-like 2),SID160735453,3.74,inactive
MCF2L2 (MCF.2 cell line derived transforming sequence-like 2),SID160735454,9.68,active
CFAP47 (cilia and flagella associated protein 47),SID160760381,-0.267,inactive
CFAP47 (cilia and flagella associated protein 47),SID160760382,1.28,inactive
CFAP47 (cilia and flagella associated protein 47),SID160760383,-0.162,inactive
CFAP47 (cilia and flagella associated protein 47),SID160763859,-0.7,inactive
CFAP47 (cilia and flagella associated protein 47),SID160763860,-0.0965,inactive
CFAP47 (cilia and flagella associated protein 47),SID160763861,0.604,inactive
CFAP47 (cilia and flagella associated protein 47),SID160769430,3.19,inactive
CFAP47 (cilia and flagella associated protein 47),SID160769432,2.69,inactive
CFAP47 (cilia and flagella associated protein 47),SID160769433,-0.392,inactive
